Here are results for one molecule from article PMC4613680.

Chains of the proteins cited; added tags and fusions are not shown.
UniProt P28482: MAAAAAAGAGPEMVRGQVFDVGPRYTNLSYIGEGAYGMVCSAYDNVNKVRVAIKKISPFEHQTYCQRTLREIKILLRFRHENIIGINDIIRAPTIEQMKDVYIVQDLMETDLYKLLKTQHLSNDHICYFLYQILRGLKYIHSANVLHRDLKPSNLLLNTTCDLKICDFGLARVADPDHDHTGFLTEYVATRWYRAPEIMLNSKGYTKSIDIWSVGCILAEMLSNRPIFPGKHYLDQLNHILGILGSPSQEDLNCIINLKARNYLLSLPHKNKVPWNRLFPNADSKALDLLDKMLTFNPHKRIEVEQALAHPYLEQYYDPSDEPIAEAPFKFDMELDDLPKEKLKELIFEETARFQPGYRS
UniProt P27361: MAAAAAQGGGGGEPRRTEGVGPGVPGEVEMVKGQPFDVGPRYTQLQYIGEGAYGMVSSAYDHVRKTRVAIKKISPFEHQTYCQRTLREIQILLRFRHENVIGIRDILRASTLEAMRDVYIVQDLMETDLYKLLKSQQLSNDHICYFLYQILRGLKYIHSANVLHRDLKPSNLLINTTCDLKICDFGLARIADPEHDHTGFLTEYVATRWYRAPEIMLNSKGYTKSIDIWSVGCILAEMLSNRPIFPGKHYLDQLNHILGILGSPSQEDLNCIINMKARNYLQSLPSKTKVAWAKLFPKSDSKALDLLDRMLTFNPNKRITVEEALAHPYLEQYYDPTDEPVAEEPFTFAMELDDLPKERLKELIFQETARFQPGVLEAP

These are yes or no findings as the source states them, for the method shown. Binding seen in cells or lysates may run through a third protein. Some results given as binding are weak or reduced against the parent protein; the word gives no strength. Where a sequence is shown, tags or fusion partners need not be part of it.

The target in assay [1] is Flag-ERK2 (extracellular signal-regulated kinase 2) (UniProt P28482). The assay can be described thus: co-IP; COS cells co-transfected with Myc-WT-CIITA and Flag-ERK1, Flag-ERK2 or both; lysed in 1% NP40 18 h after transfection; pre-cleared with mouse IgG and Protein G; immunoprecipitated with anti-Myc or anti-Flag as indicated; immunoblotted with anti-Myc.
The target in assay [2] is Flag-ERK1 (extracellular signal-regulated kinase 1) (UniProt P27361). Described as above.

B1: Myc-WT-CIITA (class II transactivator, isoform III) (protein, UniProt P33076 1-1130)
chain: MRCLAPRPAGSYLSEPQGSSQCATMELGPLEGGYLELLNSDADPLCLYHFYDQMDLAGEEEIELYSEPDTDTINCDQFSRLLCDMEGDEETREAYANIAELDQYVFQDSQLEGLSKDIFKHIGPDEVIGESMEMPAEVGQKSQKRPFPEELPADLKHWKPAEPPTVVTGSLLVGPVSDCSTLPCLPLPALFNQEPASGQMRLEKTDQIPMPFSSSSLSCLNLPEGPIQFVPTISTLPHGLWQISEAGTGVSSIFIYHGEVPQASQVPPPSGFTVHGLPTSPDRPGSTSPFAPSATDLPSMPEPALTSRANMTEHKTSPTQCPAAGEVSNKLPKWPEPVEQFYRSLQDTYGAEPAGPDGILVEVDLVQARLERSSSKSLERELATPDWAERQLAQGGLAEVLLAAKEHRRPRETRVIAVLGKAGQGKSYWAGAVSRAWACGRLPQYDFVFSVPCHCLNRPGDAYGLQDLLFSLGPQPLVAADEVFSHILKRPDRVLLILDGFEELEAQDGFLHSTCGPAPAEPCSLRGLLAGLFQKKLLRGCTLLLTARPRGRLVQSLSKADALFELSGFSMEQAQAYVMRYFESSGMTEHQDRALTLLRDRPLLLSHSHSPTLCRAVCQLSEALLELGEDAKLPSTLTGLYVGLLGRAALDSPPGALAELAKLAWELGRRHQSTLQEDQFPSADVRTWAMAKGLVQHPPRAAESELAFPSFLLQCFLGALWLALSGEIKDKELPQYLALTPRKKRPYDNWLEGVPRFLAGLIFQPPARCLGALLGPSAAASVDRKQKVLARYLKRLQPGTLRARQLLELLHCAHEAEEAGIWQHVVQELPGRLSFLGTRLTPPDAHVLGKALEAAGQDFSLDLRSTGICPSGLGSLVGLSCVTRFRAALSDTVALWESLQQHGETKLLQAAEEKFTIEPFKAKSLKDVEDLGKLVQTQRTRSSSEDTAGELPAVRDLKKLEFALGPVSGPQAFPKLVRILTAFSSLQHLDLDALSENKIGDEGVSQLSATFPQLKSLETLNLSQNNITDLGAYKLAEALPSLAASLLRLSLYNNCICDVGAESLARVLPDMVSLRVMDVQYNKFTAAGAQQLAASLRRCPHVETLAMWTPTIPFSVQEHLQQQDSRISLR
For the molecule B1, the binding entry in assay [1] and in assay [2] was “binds” throughout.
